PubChem BioAssay AID686943 | Drosophila RNAi Screening Center – 2013

- Aim: 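Knockdowns that increase or decrease active ERK after insulin receptor stimulation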 (primary screen)
- System: Drosophila S2R+ haemocyte-like cells expressing YFP-tagged ERK (Rolled)
- Reagents: long dsRNA against Drosophila genes
- Conditions: insulin stimulation versus unstimulated cells; dose and duration not given
- Measured: 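Antibody staining for doubly phosphorylated ERK divided by ERK-YFP signal, as plate z-scores, in insulin-treated and untreated cells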
- Scale: replicate 1, z-score of dpERK with insulin: higher = more active ERK per ERK-YFP after insulin
In all, the deposit lists about 23,000 reagents; this is an unselected part of those that have a named target and a result. 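Extra replicates exist only for a retested subset of genes; insulin dose and duration not given; both raised and lowered dpERK matter.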 A plus sign joins genes that one reagent is predicted to hit. Further read-outs or replicates are left out here. The record does not give: the amount of reagent, the time to read-out.

CG3919 [DRSC10389] | replicate 1, z-score of dpERK with insulin = 0.14
Ir94c (Ionotropic receptor 94c) [DRSC13539] | replicate 1, z-score of dpERK with insulin = -0.38
CG2278 [DRSC18226] | replicate 1, z-score of dpERK with insulin = 0.36
eIF3b (eukaryotic translation initiation factor 3 subunit b) [DRSC06900] | replicate 1, z-score of dpERK with insulin = -1.49
UGP + PGRP-LF [DRSC10418] | replicate 1, z-score of dpERK with insulin = 0.46
ras (raspberry) [DRSC18825] | replicate 1, z-score of dpERK with insulin = -0.85
phu (phurba tashi) [DRSC16390] | replicate 1, z-score of dpERK with insulin = 0.02
mnd (minidiscs) [DRSC11370] | replicate 1, z-score of dpERK with insulin = -1.04
CG42780 [DRSC17514] | replicate 1, z-score of dpERK with insulin = -0.26
CG15385 [DRSC00399] | replicate 1, z-score of dpERK with insulin = 0.24
CG10527 [DRSC04078] | replicate 1, z-score of dpERK with insulin = -0.04
CG4733 [DRSC15634] | replicate 1, z-score of dpERK with insulin = -0.4

2 successive entries from above:
UGP + PGRP-LF [DRSC10418] | replicate 1, z-score of dpERK with insulin = 0.46
ras (raspberry) [DRSC18825] | replicate 1, z-score of dpERK with insulin = -0.85

Further entries follow.
CG8243 [DRSC07122] | replicate 1, z-score of dpERK with insulin = 0.82
CG8243 [DRSC22608] | replicate 1, z-score of dpERK with insulin = 0.9
PH4alphaSG2 (prolyl-4-hydroxylase-alpha SG2) [DRSC15037] | replicate 1, z-score of dpERK with insulin = 0.56
CG31115 [DRSC13692] | replicate 1, z-score of dpERK with insulin = 0.79
CG9514 [DRSC20190] | replicate 1, z-score of dpERK with insulin = 0.31
CG9514 [DRSC20191] | replicate 1, z-score of dpERK with insulin = 0.48
CG14455 [DRSC11712] | replicate 1, z-score of dpERK with insulin = -0.61
CG17195 [DRSC15188] | replicate 1, z-score of dpERK with insulin = -0.86
CG17637 [DRSC11740] | replicate 1, z-score of dpERK with insulin = -0.1
